From article doi:10.1101/2023.02.27.530266
No constants are given. Whether binding was seen depends on the method and setting. Binding seen in cells or lysates may run through a third protein. Some results given as binding are weak or reduced against the parent protein; the word gives no strength. Tags and fused reporters may be left off the sequences shown.

Protein sequences, listed by entry. Tags and fused reporters are not part of them.
UniProt P84077: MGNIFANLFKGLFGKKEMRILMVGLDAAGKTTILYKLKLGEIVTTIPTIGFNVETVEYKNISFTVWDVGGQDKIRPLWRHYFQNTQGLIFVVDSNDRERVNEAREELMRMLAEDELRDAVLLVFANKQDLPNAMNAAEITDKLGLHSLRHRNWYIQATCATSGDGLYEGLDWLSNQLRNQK

Biological target: T1, HA-tagged SseI (full length), Salmonella Typhimurium SPI2 effector protein (Salmonella typhimurium (STM) strain LT-2) (UniProt Q8ZQ79)
T1 sequence: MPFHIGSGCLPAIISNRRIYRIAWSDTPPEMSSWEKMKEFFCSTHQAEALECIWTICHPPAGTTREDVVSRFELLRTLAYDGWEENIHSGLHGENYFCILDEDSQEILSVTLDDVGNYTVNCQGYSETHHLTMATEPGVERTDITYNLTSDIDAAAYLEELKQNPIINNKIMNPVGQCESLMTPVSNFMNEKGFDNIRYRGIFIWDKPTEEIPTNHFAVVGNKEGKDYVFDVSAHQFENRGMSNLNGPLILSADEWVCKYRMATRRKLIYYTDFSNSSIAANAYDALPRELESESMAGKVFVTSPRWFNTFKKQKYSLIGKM
Experiment: co-IP

For “GFP-tagged ARF1 (ADP-ribosylation factor 1) (from UniProt P84077 1-181)”, the binding was “binds”.
